Laboratory results: article PMC10878149
These are yes or no findings as the source states them, for the method shown. Binding seen in cells or lysates may run through a third protein. Some binding calls cover weakened binding; strength is not graded here. For some assays here: Tags and fused reporters may be left off the sequences shown.

Legend:
[1] = biological target: COP9 signalosome subunit 5 (human (endogenous in A2780/DDP)) (UniProt Q92905); experiment: co-IP; endogenous proteins; A2780/DDP whole-cell protein in NP40 lysis buffer, IP with anti-CSN5, anti-CRT or control IgG overnight at 4 °C, protein A/G magnetic beads, washed with PBST, immunoblot; also cells with or without CSN5 ablation exposed to cisplatin (20 μM)
HA-OGA = biological target: T1, HA-OGA (UniProt O60502); experiment: co-IP; HEK293T co-transfected with Flag-CSN5 and HA-OGA, or His-CRT and HA-OGA, 24 h; reciprocal IP-IB with the indicated antibodies
T1 sequence: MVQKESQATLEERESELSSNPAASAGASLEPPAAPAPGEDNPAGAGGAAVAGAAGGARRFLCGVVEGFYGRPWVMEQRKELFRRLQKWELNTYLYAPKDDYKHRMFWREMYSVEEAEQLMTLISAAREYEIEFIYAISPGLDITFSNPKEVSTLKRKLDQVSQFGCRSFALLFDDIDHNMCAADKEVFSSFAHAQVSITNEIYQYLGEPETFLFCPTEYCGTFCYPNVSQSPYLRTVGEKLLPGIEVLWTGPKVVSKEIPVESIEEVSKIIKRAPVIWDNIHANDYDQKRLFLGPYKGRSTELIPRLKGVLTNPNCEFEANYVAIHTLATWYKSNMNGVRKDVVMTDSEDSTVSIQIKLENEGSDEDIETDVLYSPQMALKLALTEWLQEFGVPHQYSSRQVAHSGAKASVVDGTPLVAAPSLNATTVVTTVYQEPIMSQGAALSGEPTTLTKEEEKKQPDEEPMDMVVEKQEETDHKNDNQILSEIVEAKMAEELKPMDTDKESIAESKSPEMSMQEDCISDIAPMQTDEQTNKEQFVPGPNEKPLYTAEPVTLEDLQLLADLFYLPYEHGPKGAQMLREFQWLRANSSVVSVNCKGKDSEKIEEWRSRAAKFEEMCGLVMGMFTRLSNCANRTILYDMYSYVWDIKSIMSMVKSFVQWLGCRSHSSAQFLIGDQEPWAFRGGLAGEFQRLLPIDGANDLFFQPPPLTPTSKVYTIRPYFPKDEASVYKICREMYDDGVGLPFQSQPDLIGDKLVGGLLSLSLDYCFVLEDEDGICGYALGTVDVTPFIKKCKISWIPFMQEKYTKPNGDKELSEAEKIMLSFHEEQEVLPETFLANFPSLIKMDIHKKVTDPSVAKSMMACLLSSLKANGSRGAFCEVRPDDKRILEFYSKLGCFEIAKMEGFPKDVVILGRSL

[2] = biological target: Calreticulin (human (endogenous in A2780/DDP)) (UniProt P27797); experiment: co-IP; endogenous proteins; A2780/DDP whole-cell protein in NP40 lysis buffer, IP with anti-CSN5, anti-CRT or control IgG overnight at 4 °C, protein A/G magnetic beads, washed with PBST, immunoblot; also cells with or without CSN5 ablation exposed to cisplatin (20 μM)
His-CRT = His-CRT (UniProt P27797); experiment: co-IP; HEK293T co-transfected with Flag-CSN5 and HA-OGA, or His-CRT and HA-OGA, 24 h; reciprocal IP-IB with the indicated antibodies

In the case of “Calreticulin (from UniProt P27797 18-417)”, the binding [1] is reported as “binds”.

For Flag-CSN5 (from UniProt Q92905 1-334), the binding (HA-OGA) was “binds”.

B1: O-GlcNAcase (enzyme, UniProt O60502 1-916)
chain: T1 sequence
In the case of B1, the binding [2] is reported as “binds” and the binding [1] is reported as “binds”.

B2: HA-OGA (enzyme, UniProt O60502 1-916)
chain: T1 sequence
For B2, the binding (His-CRT) was “binds”.
